According to PubChem BioAssay AID743255 (National Center for Advancing Translational Sciences (NCATS), 2014):
Screen size: about 390,000 compounds; about 910 (0.23%) were called active. This list was built around the results that the source calls inconclusive (neither active nor inactive); the mix of calls is not that of the screen. The call rests on the fitted dose curve; in most records, active means well fitted inhibition curve with a large enough effect; inconclusive means small, poorly fitted or top-dose-only effect; inactive means no such curve, though single readings can be large or run the other way. Where the call is inconclusive, the potency comes from a doubtful curve fit.

Amino acid sequences for entries named in this document (tags omitted). A change or cut given only in a name is not applied to a line headed by its entry.
UniProt O94782: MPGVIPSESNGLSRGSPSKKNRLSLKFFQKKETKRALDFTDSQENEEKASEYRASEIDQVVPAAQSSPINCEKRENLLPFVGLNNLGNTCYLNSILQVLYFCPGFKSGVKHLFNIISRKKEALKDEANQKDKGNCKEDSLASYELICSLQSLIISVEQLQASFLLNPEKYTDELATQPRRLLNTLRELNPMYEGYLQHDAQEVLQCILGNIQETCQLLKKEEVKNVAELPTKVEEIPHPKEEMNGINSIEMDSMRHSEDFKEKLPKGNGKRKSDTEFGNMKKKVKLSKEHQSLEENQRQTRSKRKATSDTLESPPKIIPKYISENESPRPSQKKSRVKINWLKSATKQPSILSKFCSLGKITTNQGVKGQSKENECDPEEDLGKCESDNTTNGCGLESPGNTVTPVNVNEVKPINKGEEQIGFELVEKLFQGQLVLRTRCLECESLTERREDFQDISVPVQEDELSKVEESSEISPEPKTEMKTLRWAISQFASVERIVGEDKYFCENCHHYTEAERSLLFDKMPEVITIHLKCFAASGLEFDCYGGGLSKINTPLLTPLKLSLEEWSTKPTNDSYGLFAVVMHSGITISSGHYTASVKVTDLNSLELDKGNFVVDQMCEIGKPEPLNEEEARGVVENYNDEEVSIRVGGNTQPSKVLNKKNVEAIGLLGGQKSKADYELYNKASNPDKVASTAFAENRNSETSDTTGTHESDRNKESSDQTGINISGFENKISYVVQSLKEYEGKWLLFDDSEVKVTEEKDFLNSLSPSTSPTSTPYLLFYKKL

These compounds were tested against Ubiquitin carboxyl-terminal hydrolase 1 (Homo sapiens) (UniProt O94782) (assay: Inhibitors of USP1/UAF1: Primary Screen). Conditions: recombinant USP1/UAF1, Ub-Rhodamine cleavage fluorescence; activity change, negative = inhibition: at 57.1 µM (top of the series).
How it was run: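 Step one: compound is pinned into 1nM USP1/UAF1 in HEPES pH 7.8 buffer with TCEP. Step two: 15 min room-temperature incubation. Step three: Ub-Rho (150nM final) starts cleavage, tracked by fluorescence over six one-minute reads.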
Further: nearly all actives have a fitted effect of over 60% in size.
On the % scale 0 is the no-effect control and ±100 the full control effect; potency means the concentration at half of the fitted maximal effect.

Potency, inconclusive:
Cc1c(N=Nc2c(-c3ccc([N+](=O)[O-])cc3)[nH]n(C(N)=S)c2=O)cccc1[N+](=O)[O-] 50.1 µM [inhibitor, partial curve, poor fit]
COc1ccc(N2CCN(C(=O)c3ccc4c(c3)NC(=O)C(CSCc3ccccc3F)N4)CC2)cc1 (configuration not stated) 4.47 µM [inhibitor, full curve, poor fit]
Oc1ccc(N=Nc2ccccc2-c2nn[nH]n2)c(O)c1 35.5 µM [inhibitor, partial curve]
COc1cccc(C(=O)SC2=NCCS2)c1 39.8 µM [inhibitor, partial curve, poor fit]
CC(C)c1cc(C(=O)N/N=C/c2ccoc2)cs1 44.7 µM [inhibitor, partial curve]
O=C(CCn1c(=O)c2cccn2c2ccc(F)cc21)NCCc1ccccc1 44.7 µM [inhibitor, partial curve, poor fit]
CCN(CC)C(=O)[C@H]1CC(CC(=O)NCCCN(C)C)C(=O)N2CCc3c([nH]c4ccc(OC)cc34)[C@]12C (some centres not stated) 50.1 µM [inhibitor, partial curve, poor fit]
COc1ccc(/C=C2\SC(=S)N(CCCC(=O)Nc3ccccc3C(=O)O)C2=O)cc1OC 14.1 µM [inhibitor, partial curve]
Cc1ccc(C(=O)NNC(=S)NC(=O)COc2ccccc2)cc1 0.708 µM [inhibitor, full curve, poor fit]
O=C(O)c1ccc(-c2ccc(/C=C3\NC(=O)N(Cc4ccc(Cl)cc4)C3=O)o2)cc1Cl 44.7 µM [inhibitor, partial curve, poor fit]
CCN1CCCC1CNC(=O)CN1C(=O)COc2ccc(C)cc21 (configuration not stated) 50.1 µM [inhibitor, partial curve, poor fit]
COc1ccccc1NC(=O)NNC(=O)c1ccncc1 3.98 µM [inhibitor, full curve, poor fit]
CCN(CC)CCNC(=O)c1ccc(NC(=O)Cc2ccccc2F)cc1 50.1 µM [inhibitor, partial curve, poor fit]
CCN(CC)C(=O)CSc1nc2cc3c(cc2c(=O)n1CCCC(=O)NCCc1ccc(OC)c(OC)c1)OCO3 0.282 µM [inhibitor, full curve, poor fit]
CC(C)c1ccc(OCC(=O)Nc2cc(-c3ccccc3)no2)cc1 1.58 µM [inhibitor, full curve, poor fit]
COC(=O)CCC(=O)OC1(C)C(=O)C=C2C=C(c3ccsc3)OC=C2C1=O (configuration not stated) 31.6 µM [inhibitor, partial curve]
CC1CCN(c2ccc3c(c2)S(=O)(=O)c2cccc(C(=O)NC[C@@H]4CCCO4)c2C3=O)CC1 22.4 µM [inhibitor, partial curve]
COCCCN=C1NN=C(c2cc(C)n(Cc3ccccc3Cl)c2C)CS1 6.31 µM [inhibitor, single point]
C=CCCCN(Cc1ccccc1)S(=O)(=O)c1ccccc1Br 89.1 µM [inhibitor, partial curve, poor fit]
CCCc1nc2ccccc2c(C(=O)OCc2nnc(-c3cc(OC)c(OC)c(OC)c3)o2)c1CC 70.8 µM [inhibitor, partial curve, poor fit]
CCCn1c(=N)c(C#N)cc2c(=O)n3ccccc3nc21 44.7 µM [inhibitor, partial curve, poor fit]
Cc1ccc(S(=O)(=O)c2nc(-c3cccc(Br)c3)oc2N2CCCCCC2)cc1 11.2 µM [inhibitor, single point]
CN(C)c1ccc(NC(=O)CSc2nc3ccccc3c(=O)n2CC2CCCO2)cc1 (configuration not stated) 6.31 µM [inhibitor, single point]
CCOC(=O)C1=C(CSc2nc(-c3ccccc3)ccc2C#N)OC(N)=C(C#N)C1c1ccc(OC)cc1 (configuration not stated) 35.5 µM [inhibitor, partial curve, poor fit]
O=C1Nc2ccccc2OC1CC(=O)N1CCOCC1 (configuration not stated) 0.398 µM [inhibitor, full curve, poor fit]
CCN(CC)c1cc(C)c2cc(NC(=O)c3cc(OC)cc(OC)c3)ccc2n1 44.7 µM [inhibitor, partial curve, poor fit]
CC(=O)c1ccc2c(c1)C1C=CCC1C(c1ccc(S(=O)(=O)N3CCOCC3)cc1)N2 (configuration not stated) 39.8 µM [inhibitor, partial curve]
Clc1ccc(NCc2cccnc2)c(Cl)c1 1.41 µM [inhibitor, partial curve, poor fit]
COc1ccc(CCn2c(C)cc(C(=O)COC(=O)c3ccc(NC(=O)CC#N)cc3)c2C)cc1 50.1 µM [inhibitor, partial curve, poor fit]
CC(C)NC(=O)N(C)C[C@H]1Oc2c(NS(=O)(=O)c3cn(C)cn3)cccc2C(=O)N([C@H](C)CO)C[C@@H]1C 79.4 µM [inhibitor, partial curve, poor fit]
Cc1ccc(CNC(=O)C2CCN(Cc3nc(-c4ccccc4C)oc3C)CC2)cc1 0.0562 µM [inhibitor, full curve, poor fit]
Nc1nc(COc2ccc3ccccc3c2)cs1 25.1 µM [inhibitor, single point]
Cn1c(N)c(C(=O)COC(=O)c2cc(C3CC3)nc3ccccc23)c(=O)n(Cc2ccccc2)c1=O 44.7 µM [inhibitor, partial curve, poor fit]
O=C(O)c1cc2ccccc2c2cc(Br)ccc12 44.7 µM [inhibitor, partial curve, poor fit]
Cc1ccc(C(=O)c2cn(Cc3cc(C)ccc3C)c3nc(C)ccc3c2=O)cc1 44.7 µM [inhibitor, partial curve, poor fit]
COc1ccccc1OCCNC(=O)CN1C(=O)NC2(CCCC2)C1=O 8.91 µM [inhibitor, full curve, poor fit]
Cc1c(C(C)(C)C)c(C=S)n2ccccc12 100 µM [inhibitor, partial curve, poor fit]
COc1ccc(OC)c(NC(=O)CSc2c3c(nc4cc(Cl)ccc24)CCCC3)c1 10 µM [inhibitor, partial curve]
NC(=O)CSc1nc2cc3c(cc2c(=O)n1CCCCCC(=O)NCc1ccc2c(c1)OCO2)OCO3 0.251 µM [inhibitor, full curve, poor fit]
COCCn1nnnc1C(c1cc2ccc(OC)cc2[nH]c1=O)N1CCc2ccccc2C1 (configuration not stated) 2.24 µM [inhibitor, partial curve, poor fit]
O=C1CC[C@H](OCc2ccccc2)CCN1[C@H](CSc1ccccc1)Cc1ccccc1 14.1 µM [inhibitor, partial curve, poor fit]
CCOC(=O)c1c(/N=C/C2=C(O)CC(C)(C)CC2=O)sc2c1CCCC2 2.82 µM [inhibitor, full curve]

Taken from the listing for reference:
Potency, inconclusive:
CCOC(=O)C1=C(CSc2nc(-c3ccccc3)ccc2C#N)OC(N)=C(C#N)C1c1ccc(OC)cc1 (configuration not stated) 35.5 µM [inhibitor, partial curve, poor fit]
O=C1Nc2ccccc2OC1CC(=O)N1CCOCC1 (configuration not stated) 0.398 µM [inhibitor, full curve, poor fit]
CCN(CC)c1cc(C)c2cc(NC(=O)c3cc(OC)cc(OC)c3)ccc2n1 44.7 µM [inhibitor, partial curve, poor fit]
CC(=O)c1ccc2c(c1)C1C=CCC1C(c1ccc(S(=O)(=O)N3CCOCC3)cc1)N2 (configuration not stated) 39.8 µM [inhibitor, partial curve]
Clc1ccc(NCc2cccnc2)c(Cl)c1 1.41 µM [inhibitor, partial curve, poor fit]
COc1ccc(CCn2c(C)cc(C(=O)COC(=O)c3ccc(NC(=O)CC#N)cc3)c2C)cc1 50.1 µM [inhibitor, partial curve, poor fit]
CC(C)NC(=O)N(C)C[C@H]1Oc2c(NS(=O)(=O)c3cn(C)cn3)cccc2C(=O)N([C@H](C)CO)C[C@@H]1C 79.4 µM [inhibitor, partial curve, poor fit]
Cc1ccc(CNC(=O)C2CCN(Cc3nc(-c4ccccc4C)oc3C)CC2)cc1 0.0562 µM [inhibitor, full curve, poor fit]
Nc1nc(COc2ccc3ccccc3c2)cs1 25.1 µM [inhibitor, single point]
Cn1c(N)c(C(=O)COC(=O)c2cc(C3CC3)nc3ccccc23)c(=O)n(Cc2ccccc2)c1=O 44.7 µM [inhibitor, partial curve, poor fit]

Next part.

Activity change, negative = inhibition, inactive:
Cc1sc2cc3c(c(C(=O)c4ccccc4)[n+]2c1C)-c1cccc2cccc-3c12 -10.9%
O=C(COc1ccccc1)NCC1(N2CCCCC2)CCCCC1 0.878%
CCOC(=O)c1c(C)c(C(=O)NCc2ccco2)c(C)n1CC -9.97%
COC1=C/C(=C/c2c(N)n3nc(CC(=O)N4CCCC4)sc3nc2=O)C=CC1=O -17%
CC1CCN(C(=O)c2ccc3c(c2NCCO)C(=O)c2ccccc2C3=O)CC1 -17.2%
Cc1ccc(S(=O)(=O)N(CC(=O)Nc2ccc(F)cc2F)Cc2ccc(F)cc2)cc1 -26.6%
COc1ccc2oc(=O)c(/C(N)=N/NC(=O)c3ccncc3)cc2c1 -19%
O=C(Nc1cc(S(=O)(=O)N2CCOCC2)ccc1N1CCCCC1)c1cc(-c2ccccn2)nc2ccccc12 -10.2%
O=C(CN1CCSC1=O)Nc1ccc(N2CCOCC2)cc1 -6.02%
CC(C)OP(=O)(OC(C)C)C1(O)C(=O)Nc2ccc(Br)cc21 (configuration not stated) 3.28%
Cc1[nH]n(-c2ccccc2)c(=O)c1Sc1ccc(Cl)cc1 -6.96%
COc1cc(/C=N/Nc2ccc(Cl)c(C(=O)O)c2)ccc1OC(=O)c1ccco1 -5.9%
C(#CCN1CCCC1)CC(c1ccccc1)c1ccccc1 1.91%
COc1ccc(C(=O)/C(=C\c2ccco2)N2C=CC=CC2=C(C#N)C#N)cc1 -24.1%
N#CCCN(C(=O)COC(=O)c1ccc(CNS(=O)(=O)c2ccc(F)c(Cl)c2)cc1)c1ccc(F)cc1 -17.5%
CC(C)c1c(C(=O)N/N=C/c2cccc(OCc3ccccc3)c2)nnn1-c1nonc1N -6.18%
CCCCn1c(SCC(=O)Nc2cccc(OC)c2)nc2ccc(N3CCOCC3)cc2c1=O -27.4%

Activity change, negative = inhibition, inconclusive:
CC1(c2ccccc2)NC(=O)N(CC(=O)N2CCc3ccccc32)C1=O (configuration not stated) -14.2% [inhibitor]
CN(C)S(=O)(=O)c1ccc2c(c1)N(CC(=O)Nc1cccc(C(F)(F)F)c1)C(=O)CS2 -31% [inhibitor]
CCOC(=O)N1CCN(C(=S)NC(=O)C23CC4CC(CC(C4)C2)C3)CC1 -7.6% [inhibitor]
